Reference: article PMC4737187
No constants are given. Whether binding was seen depends on the method and setting. In cells and extracts the contact can be indirect. Some binding calls cover weakened binding; strength is not graded here.

Chains of the proteins cited; added tags and fusions are not shown. Residues count along the entry.
UniProt P35869, residues 11-848: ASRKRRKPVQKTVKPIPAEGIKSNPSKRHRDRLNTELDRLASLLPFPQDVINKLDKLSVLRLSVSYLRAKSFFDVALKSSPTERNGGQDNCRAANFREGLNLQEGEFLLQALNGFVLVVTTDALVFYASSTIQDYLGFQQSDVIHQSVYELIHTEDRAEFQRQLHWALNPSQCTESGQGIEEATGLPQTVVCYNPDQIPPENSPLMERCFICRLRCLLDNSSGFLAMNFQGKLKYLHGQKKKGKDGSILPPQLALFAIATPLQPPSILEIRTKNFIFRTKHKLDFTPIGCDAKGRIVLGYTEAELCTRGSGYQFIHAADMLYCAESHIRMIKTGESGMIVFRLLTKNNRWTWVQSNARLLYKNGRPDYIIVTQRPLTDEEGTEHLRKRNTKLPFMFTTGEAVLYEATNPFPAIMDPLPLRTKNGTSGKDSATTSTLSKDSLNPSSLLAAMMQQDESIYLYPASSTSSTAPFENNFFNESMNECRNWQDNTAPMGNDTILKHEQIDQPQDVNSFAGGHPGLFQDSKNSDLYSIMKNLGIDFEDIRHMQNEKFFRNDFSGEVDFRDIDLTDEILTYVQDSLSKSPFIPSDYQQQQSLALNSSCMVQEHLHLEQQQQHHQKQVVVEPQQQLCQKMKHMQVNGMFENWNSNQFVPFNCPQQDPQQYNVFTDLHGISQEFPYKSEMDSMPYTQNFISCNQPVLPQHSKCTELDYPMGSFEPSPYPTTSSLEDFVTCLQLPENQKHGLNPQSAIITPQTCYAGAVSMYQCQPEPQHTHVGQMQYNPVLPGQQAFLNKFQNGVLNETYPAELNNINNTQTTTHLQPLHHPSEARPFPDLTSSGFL

Assays:
[1] = target: FLAG-HA-tagged arylhydrocarbon receptor (eAhR) (human) (UniProt P35869); experiment: co-IP; FLAG-HA-tagged bait purified on anti-FLAG antibody-conjugated agarose from the solubilized chromatin fraction of stably transduced HeLa S3 cells treated with 100 nM indirubin for 3 h; western blotting; mock purification from non-transduced cells
[2] = target: Arylhydrocarbon receptor (AhR), endogenous (human (endogenous in HeLa S3)) (UniProt P35869); experiment: co-IP; chromatin fraction of HeLa S3 cells incubated with anti-AhR (N-19) or anti-PDC-E2 (ab110332) antibody, protein G-Agarose, 4°C; normal goat or mouse IgG as control; western blotting
[3] = target: FLAG-HA-tagged pyruvate kinase M2 (ePKM2) (human), P14618; experiment: co-IP; FLAG-HA-tagged bait purified on anti-FLAG antibody-conjugated agarose from the solubilized chromatin fraction of stably transduced HeLa S3 cells treated with 100 nM indirubin for 3 h; western blotting; mock purification from non-transduced cells; settings: remark: other sources report otherwise

| binding [1] | binding [2] | binding [3] | Binder |
| --- | --- | --- | --- |
| binds | binds |  | E2 subunit of pyruvate dehydrogenase complex (PDC-E2), endogenous (protein, UniProt P10515 87-647) SLPPHQKVPLPSLSPTMQAGTIARWEKKEGDKINEGDLIAEVETDKATVGFESLEECYMAKILVAEGTRDVPIGAIICITVGKPEDIEAFKNYTLDSSAAPTPQAAPAPTPAATASPPTPSAQAPGSSYPPHMQVLLPALSPTMTMGTVQRWEKKVGEKLSEGDLLAEIETDKATIGFEVQEEGYLAKILVPEGTRDVPLGTPLCIIVEKEADISAFADYRPTEVTDLKPQVPPPTPPPVAAVPPTPQPLAPTPSAPCPATPAGPKGRVFVSPLAKKLAVEKGIDLTQVKGTGPDGRITKKDIDSFVPSKVAPAPAAVVPPTGPGMAPVPTGVFTDIPISNIRRVIAQRLMQSKQTIPHYYLSIDVNMGEVLLVRKELNKILEGRSKISVNDFIIKASALACLKVPEANSSWMDTVIRQNHVVDVSVAVSTPAGLITPIVFNAHIKGVETIANDVVSLATKAREGKLQPHEFQGGTFTISNLGMFGIKNFSAIINPPQACILAIGASEDKLVPADNEKGFDVASMMSVTLSCDHRVVDGAVGAQWLAEFRKYLEKPITMLL |
|  |  | binds | E2 subunit of pyruvate dehydrogenase complex (PDC-E2), endogenous, P10515 87-647 (protein) SLPPHQKVPLPSLSPTMQAGTIARWEKKEGDKINEGDLIAEVETDKATVGFESLEECYMAKILVAEGTRDVPIGAIICITVGKPEDIEAFKNYTLDSSAAPTPQAAPAPTPAATASPPTPSAQAPGSSYPPHMQVLLPALSPTMTMGTVQRWEKKVGEKLSEGDLLAEIETDKATIGFEVQEEGYLAKILVPEGTRDVPLGTPLCIIVEKEADISAFADYRPTEVTDLKPQVPPPTPPPVAAVPPTPQPLAPTPSAPCPATPAGPKGRVFVSPLAKKLAVEKGIDLTQVKGTGPDGRITKKDIDSFVPSKVAPAPAAVVPPTGPGMAPVPTGVFTDIPISNIRRVIAQRLMQSKQTIPHYYLSIDVNMGEVLLVRKELNKILEGRSKISVNDFIIKASALACLKVPEANSSWMDTVIRQNHVVDVSVAVSTPAGLITPIVFNAHIKGVETIANDVVSLATKAREGKLQPHEFQGGTFTISNLGMFGIKNFSAIINPPQACILAIGASEDKLVPADNEKGFDVASMMSVTLSCDHRVVDGAVGAQWLAEFRKYLEKPITMLL |
